The source of these data is paper PMC4165403.

Chains of the proteins cited; added tags and fusions are not shown.
UniProt Q5SQX6: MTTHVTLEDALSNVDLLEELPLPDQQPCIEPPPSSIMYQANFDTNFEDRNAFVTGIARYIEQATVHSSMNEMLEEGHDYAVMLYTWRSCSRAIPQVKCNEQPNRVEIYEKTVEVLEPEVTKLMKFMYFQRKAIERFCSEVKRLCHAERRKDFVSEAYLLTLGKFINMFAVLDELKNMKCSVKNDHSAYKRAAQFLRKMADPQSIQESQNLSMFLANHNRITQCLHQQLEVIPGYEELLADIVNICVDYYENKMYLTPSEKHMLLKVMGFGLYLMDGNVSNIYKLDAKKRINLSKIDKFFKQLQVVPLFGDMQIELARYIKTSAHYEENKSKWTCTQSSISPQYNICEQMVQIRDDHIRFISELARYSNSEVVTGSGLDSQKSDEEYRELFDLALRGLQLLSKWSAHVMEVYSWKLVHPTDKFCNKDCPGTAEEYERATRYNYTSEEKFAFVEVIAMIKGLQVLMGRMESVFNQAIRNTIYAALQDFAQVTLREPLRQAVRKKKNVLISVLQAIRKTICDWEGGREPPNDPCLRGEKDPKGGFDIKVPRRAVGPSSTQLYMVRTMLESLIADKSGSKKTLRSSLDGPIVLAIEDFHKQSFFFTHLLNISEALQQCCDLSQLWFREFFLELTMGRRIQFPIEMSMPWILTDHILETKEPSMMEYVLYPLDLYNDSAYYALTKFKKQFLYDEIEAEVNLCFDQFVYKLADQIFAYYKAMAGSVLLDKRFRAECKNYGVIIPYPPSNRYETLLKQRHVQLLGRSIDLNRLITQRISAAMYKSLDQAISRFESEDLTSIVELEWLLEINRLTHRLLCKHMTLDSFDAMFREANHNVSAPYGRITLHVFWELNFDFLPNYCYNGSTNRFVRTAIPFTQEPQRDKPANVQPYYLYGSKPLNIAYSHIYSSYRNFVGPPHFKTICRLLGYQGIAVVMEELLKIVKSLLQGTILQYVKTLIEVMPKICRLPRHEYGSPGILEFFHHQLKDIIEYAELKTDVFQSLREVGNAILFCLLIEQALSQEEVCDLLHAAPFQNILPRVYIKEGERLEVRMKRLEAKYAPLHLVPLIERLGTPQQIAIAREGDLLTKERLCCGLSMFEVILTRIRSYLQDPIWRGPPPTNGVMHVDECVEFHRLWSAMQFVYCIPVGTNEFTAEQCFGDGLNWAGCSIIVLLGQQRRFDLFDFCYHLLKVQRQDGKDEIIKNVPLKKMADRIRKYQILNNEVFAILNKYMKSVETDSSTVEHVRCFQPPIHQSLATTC
UniProt Q8BH43: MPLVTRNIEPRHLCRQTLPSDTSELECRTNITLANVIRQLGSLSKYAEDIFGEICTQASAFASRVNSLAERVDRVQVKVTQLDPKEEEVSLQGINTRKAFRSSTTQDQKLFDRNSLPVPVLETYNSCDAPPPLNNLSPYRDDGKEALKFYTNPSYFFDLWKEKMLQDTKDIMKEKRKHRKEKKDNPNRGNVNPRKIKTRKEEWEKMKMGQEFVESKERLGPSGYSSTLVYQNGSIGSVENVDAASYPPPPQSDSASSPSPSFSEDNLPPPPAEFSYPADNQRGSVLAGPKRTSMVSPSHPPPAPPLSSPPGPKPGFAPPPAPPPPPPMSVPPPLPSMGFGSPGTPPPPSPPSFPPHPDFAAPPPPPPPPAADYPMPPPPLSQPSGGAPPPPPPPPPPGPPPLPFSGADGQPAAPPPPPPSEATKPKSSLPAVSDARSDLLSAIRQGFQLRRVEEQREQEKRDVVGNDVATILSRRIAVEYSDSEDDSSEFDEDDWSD

These are yes or no findings as the source states them, for the method shown. In cells and extracts the contact can be indirect. Here binding means that the protein was enriched with, or labelled near, the bait; the list need not be complete.

B1: zyxin (endogenous, MV^D7 cells) (protein, UniProt Q62523 1-564)
chain: MAAPRPPPAISVSVSAPAFYAPQKKFAPVVAPKPKVNPFRPGDSEPPVAAGAQRAQMGRVGEIPPPPPEDFPLPPPPLIGEGDDSEGALGGAFPPPPPPMIEEPFPPAPLEEDIFPSPPPPLEEEGGPEAPTQLPPQPREKVCSIDLEIDSLSSLLDDMTKNDPFKARVSSGYVPPPVATPFVPKPSTKPAPGGTAPLPPWKTPSSSQPPPQPQAKPQVQLHVQPQAKPHVQPQPVSSANTQPRGPLSQAPTPAPKFAPVAPKFTPVVSKFSPGAPSGPGPQPNQKMVPPDAPSSVSTGSPQPPSFTYAQQKEKPLVQEKQHPQPPPAQNQNQVRSPGGPGPLTLKEVEELEQLTQQLMQDMEHPQRQSVAVNESCGKCNQPLARAQPAVRALGQLFHITCFTCHQCQQQLQGQQFYSLEGAPYCEGCYTDTLEKCNTCGQPITDRMLRATGKAYHPQCFTCVVCACPLEGTSFIVDQANQPHCVPDYHKQYAPRCSVCSEPIMPEPGRDETVRVVALDKNFHMKCYKCEDCGKPLSIEADDNGCFPLDGHVLCRKCHSARAQT

This assay concerns the target GST-tagged EVH1 domain of Mena (human) (UniProt Q8N8S7). Put plainly: affinity purification with mass spectrometry; GST-EVH1 Mena or GST resin on MV^D7 cell lysates; stained bands digested with trypsin, LC-MS/MS; only the target purified.
Consider “PIR121 (endogenous, MV^D7 cells) (from UniProt Q5SQX6 1-1253)”, for which the binding entry was “binds”.

With “WAVE2 (endogenous, MV^D7 cells) (from UniProt Q8BH43 1-497)”, the binding result is on record as “binds”.

For the molecule B1, the binding entry was “binds”.
